Test results from patent US20130344085A1.
Substitutions are numbered along the chain they refer to. Results are given in words; binding and its absence hold for the method and conditions named. Some binding calls cover weakened binding; strength is not graded here.

By UniProt entry, the sequences of proteins in these tests, tags left out. Where a name states a change or a piece, a line headed by the entry shows the natural chain unless it says otherwise.
UniProt Q8NBP7: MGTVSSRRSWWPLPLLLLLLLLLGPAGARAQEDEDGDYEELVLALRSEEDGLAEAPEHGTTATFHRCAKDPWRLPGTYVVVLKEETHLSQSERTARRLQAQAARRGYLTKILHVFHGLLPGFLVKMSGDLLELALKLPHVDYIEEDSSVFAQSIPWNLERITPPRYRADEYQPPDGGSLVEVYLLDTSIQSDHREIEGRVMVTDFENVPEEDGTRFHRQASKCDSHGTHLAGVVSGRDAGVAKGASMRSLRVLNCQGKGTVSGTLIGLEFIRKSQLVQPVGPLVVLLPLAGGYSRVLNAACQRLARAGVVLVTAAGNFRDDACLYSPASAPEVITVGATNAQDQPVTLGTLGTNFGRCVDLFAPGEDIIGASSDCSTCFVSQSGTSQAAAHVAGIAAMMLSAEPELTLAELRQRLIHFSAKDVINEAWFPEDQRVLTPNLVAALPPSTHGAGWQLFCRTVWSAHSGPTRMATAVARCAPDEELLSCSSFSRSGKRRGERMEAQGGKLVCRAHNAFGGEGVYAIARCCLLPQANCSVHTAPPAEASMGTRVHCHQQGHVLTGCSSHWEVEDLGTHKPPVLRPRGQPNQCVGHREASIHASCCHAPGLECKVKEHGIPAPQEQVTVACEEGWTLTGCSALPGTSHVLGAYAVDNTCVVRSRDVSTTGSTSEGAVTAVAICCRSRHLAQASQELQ

B1: anti-PCSK9 antibody 508.20.04b (antibody, human IgG1, V domains shown)
VH: EVQLVESGGGLVQPGGSLRLSCAASGFTFTGYAIHWVRQAPGKGLEWVARISPANGNTNYADSVKGRFTISADTSKNTAYLQMNSLRAEDTAVYYCARWIGSRELYIMDYWGQGTLVTVSS
VL: DIQMTQSPSSLSASVGDRVTITCRASQDVSTAVAWYQQKPGKAPKLLIYSASFLYSGVPSRFSGSGSGTDFTLTISSLQPEDFATYYCQQSYPAPATFGQGTKVEIK
B2: anti-PCSK9 antibody 508.20.06 (antibody, human IgG1, V domains shown)
VH: B1 VH
VL: B1 VL with A94S
B3: anti-PCSK9 antibody 508.20.28b (antibody, human IgG1, V domains shown)
VH: B1 VH with G31R, Y32H, A33T, H35N
VL: B1 VL with P93R, A94I, P95Q, A96P
B4: YW508.20.33b reformatted into human IgG1 having a heavy chain with SEQ ID NO: 35 and a light chain with SEQ ID NO: 36 (antibody, V domains shown)
VH: B1 VH with T30S, G31S, Y32T
VL: DIQMTQSPSSLSASVGDRVTITCRASQDVSTAVAWYQQKPGKAPKLLIYSASFLYSGVPSRFSGSGSGTDFTLTISSLQPEDFATYYCQQAYPALHTFGQGTKVEIKR
B5: anti-PCSK9 antibody 508.20.84 (antibody, human IgG1, V domains shown)
VH: B1 VH
VL: B1 VL with A96S

What follows are binders tested against biotinylated human PCSK9 (human) (UniProt Q8NBP7) (assay: phage competition ELISA (phage IC50) against PCSK9, phage-displayed Fab, compared with parental clone 508.20b).

B1 was tested. Which binding did it give?
The binding was “binds”.

How did the binding turn out when B2 was run?
Its binding is “binds”.

For B3, which binding is on record?
Its binding is “binds”.

Which binding does the source give for B4 here?
The binding was “binds”.

B5 was tested. Which binding did it give?
Its binding is “binds”.
